The values that follow come from publication PMC7790283.

Experiment [1] has as its target hnRNP-K (human (endogenous in HMECs)) (UniProt P61978). Put plainly: co-IP; endogenous proteins of HMEC whole cell extract (lysis buffer with 420 mM NaCl, diluted 6X with IP buffer: 20 mM Tris HCl pH 7.5, 50 mM NaCl, 10 mM MgCl2, 2 mM EDTA, 0.5% Triton-X-100); protein-G Sepharose beads, 4°C; Western blot; untreated cells.
Experiment [2] addresses T1, CCCTC-binding factor (CTCF) (human (endogenous in HMECs)) (UniProt P49711).
T1 sequence: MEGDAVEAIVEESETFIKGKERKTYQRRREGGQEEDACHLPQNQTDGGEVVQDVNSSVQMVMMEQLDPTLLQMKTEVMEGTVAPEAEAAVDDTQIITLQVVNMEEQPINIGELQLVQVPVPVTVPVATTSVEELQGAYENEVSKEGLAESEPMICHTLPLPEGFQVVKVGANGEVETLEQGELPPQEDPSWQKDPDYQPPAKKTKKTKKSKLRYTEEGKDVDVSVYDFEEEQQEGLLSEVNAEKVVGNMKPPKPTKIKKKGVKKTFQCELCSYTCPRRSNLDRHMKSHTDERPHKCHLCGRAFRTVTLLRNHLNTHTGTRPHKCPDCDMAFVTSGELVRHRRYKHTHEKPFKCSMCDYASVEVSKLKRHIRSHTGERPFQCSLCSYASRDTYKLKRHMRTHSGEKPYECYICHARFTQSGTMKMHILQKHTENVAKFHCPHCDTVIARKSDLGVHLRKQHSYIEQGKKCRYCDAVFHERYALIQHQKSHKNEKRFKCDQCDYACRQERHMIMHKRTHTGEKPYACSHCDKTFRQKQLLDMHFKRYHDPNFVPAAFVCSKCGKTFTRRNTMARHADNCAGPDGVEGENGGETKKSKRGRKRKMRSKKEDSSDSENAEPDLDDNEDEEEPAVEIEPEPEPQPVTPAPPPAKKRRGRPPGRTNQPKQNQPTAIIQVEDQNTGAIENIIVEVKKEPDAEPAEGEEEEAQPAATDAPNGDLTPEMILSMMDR
The description is as above.

The target of experiment [3] is T1, CCCTC-binding factor (CTCF) (human (endogenous in HMECs)). The experiment in a line: co-IP; as the co-IP of untreated HMECs, but from H2O2-treated (stressed) HMECs; CTCF IP, Western blot for SC-35.

Results are given in words; binding and its absence hold for the method and conditions named. In cells and extracts the contact can be indirect. Some results given as binding are weak or reduced against the parent protein; the word gives no strength.

B1: Serine/arginine-rich splicing factor SC-35 (protein, UniProt Q01130 1-221)
chain: MSYGRPPPDVEGMTSLKVDNLTYRTSPDTLRRVFEKYGRVGDVYIPRDRYTKESRGFAFVRFHDKRDAEDAMDAMDGAVLDGRELRVQMARYGRPPDSHHSRRGPPPRRYGGGGYGRRSRSPRRRRRSRSRSRSRSRSRSRSRYSRSKSRSRTRSRSRSTSKSRSARRSKSKSSSVSRSRSRSRSRSRSRSPPPVSKRESKSRSRSKSPPKSPEEEGAVSS
In the case of B1, the figures for the binding result in experiment [1], in experiment [2] and in experiment [3] were “binds”, “binds” and “no binding (condition: H2O2-treated cells)”, respectively.

B2: CCCTC-binding factor (CTCF) (protein, UniProt P49711 1-727)
chain: T1 sequence
As for B2, the binding result in experiment [1] is reported as “binds weakly”.
